The list is a part of this screen's results and no random one: it gathers tests that were run many times, whatever their T/C, doses with no T/C, and many T/C values between a quarter and a half above the control. Further doses and runs are listed elsewhere. T/C is the treated group as % of the vehicle group. Some entries give survivors of the animals treated and no T/C: the source holds a T/C of zero for them, seemingly a mark for toxic or unscored doses. Some doses without a T/C left all or most animals alive at the check, yet need not have been tolerated: the source hardly ever lists a survival T/C far under the control, and the zero likely stands for such cases as well. Counts of survivors are from the toxicity check (mostly the fifth day) where no day follows; animals may have died later. Schedule codes are those of the source, read here as Q, the interval in days (D) or hours (H), X, the number of doses. Some structures stand for samples that the source files as different forms (salt, stereo form or complex); doses refer to the form tested. For survival time, the PubChem record calls one and a half times the control and up active, and a quarter to a half above the control has no call in these data; cut-offs in other NCI protocols can differ. Some T/C values are followed by the survivors on the day toxicity was checked, most often the fifth; where none is given, no animal had died by that day. Some entries hold several experiments; the values are given in rising order.
Test system: L1210 leukemia ip in BDF1 mice, survival T/C
Assay: NCI In Vivo Anticancer Drug Screen. Data for tumor model L1210 Leukemia (intraperitoneal) in B6D2F1 (BDF1) mice
Conditions: T/C endpoint: mean survival time, higher T/C = longer survival
[1] = dose: 400.0 mg/kg/injection, schedule: Q01DX001 (ip), vehicle: saline
[2] = dose: 400.0 mg/kg/injection, schedule: Q04DX003 (ip), vehicle: Klucel (hydroxypropylcellulose) (HPC)
[3] = dose: 400.0 mg/kg/injection, schedule: Q04DX003 (ip), vehicle: saline with Tween-80
[4] = dose: 200.0 mg/kg/injection, schedule: Q04DX003 (ip), vehicle: Klucel (hydroxypropylcellulose) (HPC)

For `COc1cccc2c1C(=O)c1c(O)c3c(c(O)c1C2=O)C[C@@](O)(/C(C)=N/NS(C)(=O)=O)C[C@@H]3OC1CC(N)C(O)C(C)O1` (stereo not given in full), the T/C (dose: 32.0 mg/kg/injection, schedule: Q01DX009 (ip), vehicle: water) was 126 and 135 % of control [5 of 6 alive], the T/C (dose: 32.0 mg/kg/injection, schedule: Q04DX003 (ip), vehicle: water) was 132 % of control and the T/C (dose: 64.0 mg/kg/injection, schedule: Q01DX009 (ip), vehicle: water) was 135 % of control. For the same molecule, the T/C (dose: 64.0 mg/kg/injection, schedule: Q04DX003 (ip), vehicle: water) was 143 % of control, the survivor count (dose: 100.0 mg/kg/injection, schedule: Q01DX009 (ip), vehicle: water) was 5 of 6 and the survivor count (dose: 128.0 mg/kg/injection, schedule: Q01DX009 (ip), vehicle: water) was 6 of 6.

In the case of `O=C1N(c2cc([N+](=O)[O-])ccc2F)C(=O)C(F)(F)C1(F)F`, the survivor count (dose: 400.0 mg/kg/injection, schedule: Q01DX001 (ip), vehicle: saline with Tween-80) is reported as 3 of 6.

With `Nc1ncc([N+](=O)[O-])s1` the survivor count [1] was 1 of 4.

`CN(C)C(=O)C1(c2ccc(Cl)cc2)CCN(CCCC(=O)c2ccc(F)cc2)CC1` was tested, and the survivor count [2] was 4 of 4.

For `Cc1ccc([N+](=O)[O-])cc1NC(=O)Oc1ccc(Cl)cc1Cl`, the survivor count [3] was 3 of 6.

For `Cc1cc2nc(SCC(=O)O)[nH]c2cc1C`, the survivor count (dose: 400.0 mg/kg/injection, schedule: Q01DX009 (ip), vehicle: gum acacia) was 5 of 5.

For `Cc1cc2c(cc1C)NC(=O)CC(=O)N2`, the survivor count (dose: 200.0 mg/kg/injection, schedule: Q01DX009 (ip), vehicle: Klucel (hydroxypropylcellulose) (HPC)) was 6 of 6 and the survivor count (dose: 400.0 mg/kg/injection, schedule: Q01DX009 (ip), vehicle: Klucel (hydroxypropylcellulose) (HPC)) was 6 of 6.

`O=C(Nc1cccc2ccccc12)SCc1ccccc1` was tested, and the survivor count (dose: 200.0 mg/kg/injection, schedule: Q04DX002 (ip), vehicle: Klucel (hydroxypropylcellulose) (HPC)) was 3 of 3.

`O=[N+]([O-])c1ccc2nccc(Cl)c2c1` was tested, and the survivor count (dose: 100.0 mg/kg/injection, schedule: Q01DX009 (ip), vehicle: Klucel (hydroxypropylcellulose) (HPC)) was 0 of 6, the survivor count [4] was 0 of 6 and the survivor count [2] was 0 of 6.

`CC[n+]1cn(-c2ccc(S(=O)(=O)[O-])cc2)nn1` was tested, and the survivor count [1] was 0 of 6.

`C[C@H]1CCC/C=C/[C@@H]2C[C@H](O)C[C@H]2[C@H](O)/C=C/C(=O)O1` was tested, and the survivor count (dose: 400.0 mg/kg/injection, schedule: Q01DX001 (ip), vehicle: carboxymethylcellulose (CMC)) was 0 of 4.

With `CC(C)N(CCSC(=O)N1c2ccccc2Sc2cccnc21)C(C)C` the survivor count (dose: 10.0 mg/kg/injection, schedule: Q04DX003 (ip), vehicle: Klucel (hydroxypropylcellulose) (HPC)) was 3 of 6, the survivor count (dose: 20.0 mg/kg/injection, schedule: Q04DX003 (ip), vehicle: Klucel (hydroxypropylcellulose) (HPC)) was 1 of 6 and the survivor count (dose: 40.0 mg/kg/injection, schedule: Q04DX003 (ip), vehicle: Klucel (hydroxypropylcellulose) (HPC)) was 0 of 6. The survivor count (dose: 100.0 mg/kg/injection, schedule: Q04DX003 (ip), vehicle: Klucel (hydroxypropylcellulose) (HPC)) was 0 of 6, the survivor count [4] was 0 of 6 and the survivor count [2] was 0 of 6.

`COc1ccc([I+]c2ccccc2)cc1` was tested, and the survivor count (dose: 18.0 mg/kg/injection, schedule: Q01DX009 (ip), vehicle: saline) was 2 of 6, the survivor count (dose: 36.0 mg/kg/injection, schedule: Q01DX009 (ip), vehicle: saline) was 0 of 6 and the survivor count (dose: 56.0 mg/kg/injection, schedule: Q04DX003 (ip), vehicle: saline) was 0 of 6. The survivor count (dose: 84.0 mg/kg/injection, schedule: Q04DX003 (ip), vehicle: saline) was 0 of 6, the survivor count (dose: 100.0 mg/kg/injection, schedule: Q01DX001 (ip), vehicle: saline) was 0 of 6 and the survivor count (dose: 100.0 mg/kg/injection, schedule: Q04DX003 (ip), vehicle: saline with Tween-80) was 1 of 6. For the same molecule, the survivor count (dose: 200.0 mg/kg/injection, schedule: Q01DX001 (ip), vehicle: saline) was 0 of 6, the survivor count (dose: 200.0 mg/kg/injection, schedule: Q04DX003 (ip), vehicle: saline with Tween-80) was 1 of 6 and the survivor count [1] was 0 of 6. For the same molecule, the survivor count [3] was 0 of 6.

Source: PubChem BioAssay AID248 (DTP/NCI, 2004)
